No constants are given. Whether binding was seen depends on the method and setting. Binding seen in cells or lysates may run through a third protein. Some results given as binding are weak or reduced against the parent protein; the word gives no strength.
Biological target: T1, lysophosphatidylcholine acyltransferase 2 (human (endogenous in BEAS-2B)) (UniProt Q7L5N7)
T1 sequence: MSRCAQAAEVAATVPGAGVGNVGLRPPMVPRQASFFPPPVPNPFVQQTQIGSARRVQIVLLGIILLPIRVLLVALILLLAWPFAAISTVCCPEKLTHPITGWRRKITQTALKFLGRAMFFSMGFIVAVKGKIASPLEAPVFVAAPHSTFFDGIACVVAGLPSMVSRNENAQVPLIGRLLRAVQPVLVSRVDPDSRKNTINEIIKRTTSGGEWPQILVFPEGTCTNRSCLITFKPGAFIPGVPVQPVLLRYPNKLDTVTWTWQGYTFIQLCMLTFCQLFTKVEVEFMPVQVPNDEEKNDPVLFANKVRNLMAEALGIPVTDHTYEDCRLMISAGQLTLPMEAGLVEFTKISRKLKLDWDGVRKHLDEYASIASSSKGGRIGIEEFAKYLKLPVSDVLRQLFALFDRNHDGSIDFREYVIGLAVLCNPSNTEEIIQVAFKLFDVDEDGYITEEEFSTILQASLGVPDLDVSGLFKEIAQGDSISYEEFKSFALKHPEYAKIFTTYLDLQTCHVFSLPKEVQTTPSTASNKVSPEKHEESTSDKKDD
Assay: co-IP; BEAS-2B cells, control and lactate-treated (10 mM, 24 h); lysed in EBC buffer with protease/phosphatase inhibitors, antibody overnight at 4 °C, protein A/G beads, washed thrice with NETN buffer, detected by Western blot

Sequences of proteins named here, by UniProt entry; tags and fusion partners are left off.
UniProt Q9UKV0: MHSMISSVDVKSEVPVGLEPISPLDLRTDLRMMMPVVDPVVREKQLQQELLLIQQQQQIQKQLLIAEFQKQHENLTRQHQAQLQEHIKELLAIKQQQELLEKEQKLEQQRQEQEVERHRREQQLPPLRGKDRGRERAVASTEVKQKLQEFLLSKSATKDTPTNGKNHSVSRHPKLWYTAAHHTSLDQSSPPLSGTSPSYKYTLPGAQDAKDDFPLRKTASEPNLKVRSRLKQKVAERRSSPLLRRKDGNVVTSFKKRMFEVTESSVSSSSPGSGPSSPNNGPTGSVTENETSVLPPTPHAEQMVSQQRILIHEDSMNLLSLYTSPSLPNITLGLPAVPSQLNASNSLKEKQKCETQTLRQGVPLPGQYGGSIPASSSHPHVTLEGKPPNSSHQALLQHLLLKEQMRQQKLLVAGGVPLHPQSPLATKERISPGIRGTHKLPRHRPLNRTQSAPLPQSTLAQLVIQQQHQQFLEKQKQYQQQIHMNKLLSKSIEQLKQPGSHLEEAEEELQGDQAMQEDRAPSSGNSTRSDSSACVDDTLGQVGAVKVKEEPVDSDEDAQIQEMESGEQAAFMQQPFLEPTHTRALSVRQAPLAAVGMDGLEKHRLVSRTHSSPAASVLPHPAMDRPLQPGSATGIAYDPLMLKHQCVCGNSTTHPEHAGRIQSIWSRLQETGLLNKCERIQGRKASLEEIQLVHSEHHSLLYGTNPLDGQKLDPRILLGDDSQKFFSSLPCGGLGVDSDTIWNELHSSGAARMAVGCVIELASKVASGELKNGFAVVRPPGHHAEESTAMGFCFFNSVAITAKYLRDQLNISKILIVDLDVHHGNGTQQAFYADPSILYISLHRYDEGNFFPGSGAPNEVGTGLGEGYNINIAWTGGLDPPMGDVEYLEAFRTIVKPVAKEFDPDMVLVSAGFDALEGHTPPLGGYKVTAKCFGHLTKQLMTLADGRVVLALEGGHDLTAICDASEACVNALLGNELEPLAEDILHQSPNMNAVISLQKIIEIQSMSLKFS
UniProt P42224: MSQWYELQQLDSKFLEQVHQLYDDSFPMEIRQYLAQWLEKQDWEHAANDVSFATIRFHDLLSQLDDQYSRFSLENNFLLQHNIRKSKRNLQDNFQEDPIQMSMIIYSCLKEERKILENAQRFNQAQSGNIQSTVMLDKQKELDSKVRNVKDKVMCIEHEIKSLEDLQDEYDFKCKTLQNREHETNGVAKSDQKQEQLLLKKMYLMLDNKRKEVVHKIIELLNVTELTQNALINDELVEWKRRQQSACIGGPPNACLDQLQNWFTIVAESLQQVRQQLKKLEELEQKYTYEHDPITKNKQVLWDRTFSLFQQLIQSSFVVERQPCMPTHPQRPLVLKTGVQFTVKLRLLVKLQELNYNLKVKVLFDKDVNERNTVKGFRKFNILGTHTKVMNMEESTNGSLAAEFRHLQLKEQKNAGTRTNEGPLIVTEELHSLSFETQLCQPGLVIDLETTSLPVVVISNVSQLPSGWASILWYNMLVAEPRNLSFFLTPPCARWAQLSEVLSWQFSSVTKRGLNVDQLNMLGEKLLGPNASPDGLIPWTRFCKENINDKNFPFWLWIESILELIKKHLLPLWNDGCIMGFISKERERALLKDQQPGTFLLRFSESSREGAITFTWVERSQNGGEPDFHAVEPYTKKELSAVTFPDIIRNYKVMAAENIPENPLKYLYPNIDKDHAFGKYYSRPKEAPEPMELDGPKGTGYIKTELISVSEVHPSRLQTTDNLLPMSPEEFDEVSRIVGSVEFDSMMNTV

binding	Substance
binds	histone deacetylase 9 (from UniProt Q9UKV0 1-1011) (enzyme)
binds	transcription activator 1 (STAT1) (from UniProt P42224 1-750)
